The record followed here is the supplement of paper PMC12067093, “Discovery and optimisation of a covalent ligand for TRIM25 and its application to targeted protein ubiquitination” (Chemical Science, 2025).

The list shows a part of the results.
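Also: competitive profiling in live THP-1 cells: cysteine peptides tagged with an iodoacetamide desthiobiotin (IA-DTB) probe, intensity after compound treatment relative to DMSO-treated cells.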

Compound in this experiment: Cc1cc(ccc1-c1ccccc1)C(=O)N1CCCN(CC1)C(=O)CCl [compound 10]
As to the kind of experiment: probe-labelled cysteine peptide fold change vs DMSO (competition) (log2 fold change); higher = less target engagement (more negative = stronger competition). The note with it: 10 µM; THP-1; incubation time: 4 h.
In the case of “DICER1_Q9UPY3_1063_LHCLLTAEELR (UniProt Q9UPY3)”, the “probe-labelled cysteine peptide fold change” value came to 0.133.

As to “DHX30_Q7L2E3_1183_GPCGSFDVR (UniProt Q7L2E3)”, the “probe-labelled cysteine peptide fold change” value was determined as 0.029.

As for “DMXL2_Q8TDJ6_1897_VGCPVLALEVLSK (UniProt Q8TDJ6)”, the “probe-labelled cysteine peptide fold change” value amounted to 0.0214.

Take “DNAJA2_O60884_146_NVLCSACSGQGGK (UniProt O60884)”: the “probe-labelled cysteine peptide fold change” value was -0.0087.

Take “DLGAP5_Q15398_492_QFEGLVDDCEYKR (UniProt Q15398)”: the “probe-labelled cysteine peptide fold change” value was -0.0882.

On to “DIS3L2_Q8IYB7_303_DYANTLFICR (UniProt Q8IYB7)”, for which the “probe-labelled cysteine peptide fold change” value amounted to 0.0602.

With “DNAJC3_Q13217_184_ILEVCVWDAELR (UniProt Q13217)”, the “probe-labelled cysteine peptide fold change” value stood at 0.242.

Consider “DNAJB11_Q9UBS4_196_FQMTQEVVCDECPNVK (UniProt Q9UBS4)”, for which the “probe-labelled cysteine peptide fold change” value was found to be 0.0812.

With “DHX9_Q08211_438_AAECNIVVTQPR (UniProt Q08211)”, the “probe-labelled cysteine peptide fold change” value is 0.0212.

Take “DNAJC7_Q99615_337_RAQCYMDTEQYEEAVR (UniProt Q99615)”: the “probe-labelled cysteine peptide fold change” value was found to be 0.159.

Consider “DNAJB1_P25685_179_VSLEEIYSGCTKK (UniProt P25685)”, for which the “probe-labelled cysteine peptide fold change” value is -0.128.

For the target “DNM1_Q05193_607_QLELACETQEEVDSWK (UniProt Q05193)”, the “probe-labelled cysteine peptide fold change” value was -0.181.

As to “DHX38_Q92620_20_GDTSEDASIHRLEGTDLDCQVGGLICK (UniProt Q92620)”, the “probe-labelled cysteine peptide fold change” value was 0.197.

Regarding “DNAJC7_Q99615_175_ALEFAPACHR (UniProt Q99615)”, the “probe-labelled cysteine peptide fold change” value is -0.118.

As to “DHX29_Q7Z478_1025_CNLGSPEDFLSK (UniProt Q7Z478)”, the “probe-labelled cysteine peptide fold change” value was 0.0191.

With DHX9_Q08211_940_FCEHKR (UniProt Q08211), the “probe-labelled cysteine peptide fold change” value amounted to 0.0491.

For the target “DHX38_Q92620_1074_CICAAYFHQAAK (UniProt Q92620)”, the “probe-labelled cysteine peptide fold change” value was found to be 0.137.

For “DHX9_Q08211_242_LAAQSCALSLVR (UniProt Q08211)”, the “probe-labelled cysteine peptide fold change” value was 0.198.

For “DLD_P09622_306_AEVITCDVLLVCIGR (UniProt P09622)”, the “probe-labelled cysteine peptide fold change” value was 0.0292.

For the target “DNAJC7_Q99615_317_LDDAIEDCTNAVK (UniProt Q99615)”, the “probe-labelled cysteine peptide fold change” value is 0.0825.

As for “DNM1L_O00429_367_ICYIFHETFGR (UniProt O00429)”, the “probe-labelled cysteine peptide fold change” value is -0.299.

Take “DNAJC7_Q99615_7_AAAAECDVVMAATEPELLDDQEAK (UniProt Q99615)”: the “probe-labelled cysteine peptide fold change” value came out at 0.116.

Turning to “DIDO1_Q9BTC0_261+273_AAQDIKDEEPGDLGRPKPECEGYDPNALYCICR (UniProt Q9BTC0)”, the “probe-labelled cysteine peptide fold change” value is -0.0965.

“DIAPH1_O60610_1005_NAGAFGFNISFLCK (UniProt O60610)”: the “probe-labelled cysteine peptide fold change” value amounted to 0.00848.

Turning to “DNAJA1_P31689_149+150+153_GAVECCPNCR (UniProt P31689)”, the “probe-labelled cysteine peptide fold change” value came out at 0.00355.

“DMXL2_Q8TDJ6_2925_KGHVCIFDIR (UniProt Q8TDJ6)”: the “probe-labelled cysteine peptide fold change” value was -0.0272.

As for “DIS3L2_Q8IYB7_797_IYCNALALR (UniProt Q8IYB7)”, the “probe-labelled cysteine peptide fold change” value came to 0.475.

Consider “DHX37_Q8IY37_616_LCVVATNVAETSLTIPGIK (UniProt Q8IY37)”, for which the “probe-labelled cysteine peptide fold change” value turned out to be 0.141.

As for “DNAJC16_Q9Y2G8_709_YFCLFKPQK (UniProt Q9Y2G8)”, the “probe-labelled cysteine peptide fold change” value is -0.261.

Take “DIS3L_Q8TF46_88_GIIFMQTACQAVQHQR (UniProt Q8TF46)”: the “probe-labelled cysteine peptide fold change” value is -0.183.

Take “DIMT1_Q9UNQ2_259_IHCSVHNIIIPEDFSIADK (UniProt Q9UNQ2)”: the “probe-labelled cysteine peptide fold change” value came out at 0.269.

For the target “DNMT1_P26358_62_NQLCDLETK (UniProt P26358)”, the “probe-labelled cysteine peptide fold change” value was -0.156.

With “DICER1_Q9UPY3_443_EKPETNFPSPFTNILCGIIFVER (UniProt Q9UPY3)”, the “probe-labelled cysteine peptide fold change” value turned out to be 0.185.

Take “DNAJA1_P31689_302_CVLNEGMPIYR (UniProt P31689)”: the “probe-labelled cysteine peptide fold change” value was determined as 0.0431.

Take “DMXL1_Q9Y485_1352_CIAGEVVALNEAESNHER (UniProt Q9Y485)”: the “probe-labelled cysteine peptide fold change” value was determined as 0.185.

Regarding “DIDO1_Q9BTC0_296_CEEWFHGDCVGISEAR (UniProt Q9BTC0)”, the “probe-labelled cysteine peptide fold change” value came to 0.0807.

As for “DNAJC13_O75165_2110_RADTVGLACEAINR (UniProt O75165)”, the “probe-labelled cysteine peptide fold change” value was 0.0477.
